# Data reported in article PMC9522360, “Bidirectional sequestration between a bacterial hibernation factor and a glutamate metabolizing protein” (Proceedings of the National Academy of Sciences of the …, 2022).
# Amino acid sequences for entries named in this document (tags omitted). A change or cut given only in a name is not applied to a line headed by its entry.
# UniProt Q2FJ92: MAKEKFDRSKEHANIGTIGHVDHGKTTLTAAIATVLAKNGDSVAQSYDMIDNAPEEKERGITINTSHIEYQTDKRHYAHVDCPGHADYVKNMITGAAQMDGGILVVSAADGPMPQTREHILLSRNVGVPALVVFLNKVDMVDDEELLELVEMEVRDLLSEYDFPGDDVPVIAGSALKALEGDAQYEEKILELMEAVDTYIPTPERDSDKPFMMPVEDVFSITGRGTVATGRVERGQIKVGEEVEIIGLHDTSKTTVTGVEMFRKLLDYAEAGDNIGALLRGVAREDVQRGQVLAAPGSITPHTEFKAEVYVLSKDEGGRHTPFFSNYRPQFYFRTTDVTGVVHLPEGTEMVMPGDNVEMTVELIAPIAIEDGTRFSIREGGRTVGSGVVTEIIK
# UniProt A0A0H2XFW2: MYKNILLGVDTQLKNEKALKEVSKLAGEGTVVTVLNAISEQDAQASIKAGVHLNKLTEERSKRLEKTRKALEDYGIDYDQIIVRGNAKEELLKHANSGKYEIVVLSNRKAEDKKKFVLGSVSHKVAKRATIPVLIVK
# Target: T1, 2×FLAG HPF (hibernation-promoting factor with a tandem FLAG tag inserted at position 70) (S. aureus) (UniProt Q2FIN9)
# T1 sequence: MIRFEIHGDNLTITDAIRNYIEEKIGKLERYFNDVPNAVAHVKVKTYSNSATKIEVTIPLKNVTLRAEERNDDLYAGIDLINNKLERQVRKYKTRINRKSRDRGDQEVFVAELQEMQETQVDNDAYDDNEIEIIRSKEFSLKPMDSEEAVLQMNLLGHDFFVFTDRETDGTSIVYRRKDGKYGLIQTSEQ
# Assay: affinity purification with mass spectrometry; lysates of S. aureus Δhpf with 2×FLAG HPF (untagged HPF as control), exponential (4 h) or stationary phase (18 h); anti-FLAG M2 magnetic beads, 1 h at ~22 °C and 15 h at 4 °C, Buffer C (50 mM Tris-Cl pH 7.5, 100 mM KCl, 1 mM PMSF); elution with glycine pH 2.6; SDS-PAGE bands and gel-free eluate by LC-MS/MS
row,binding,Substance
1,binds,translation factor EF-Tu (from UniProt Q2FJ92 1-394)
2,binds,"universal stress protein (Usp homolog, SAUSA300_1652) (from UniProt A0A0H2XFW2)"

# No constants are given. Whether binding was seen depends on the method and setting. Binding seen in cells or lysates may run through a third protein. Here binding means that the protein was enriched with, or labelled near, the bait; the list need not be complete. Where a sequence is shown, tags or fusion partners need not be part of it.
